This is an account of results in paper PMC5656663.

By UniProt entry, the sequences of proteins in these tests, tags left out. Where a name states a change or a piece, a line headed by the entry shows the natural chain unless it says otherwise. Chains listed by the source or under a name are the forms on record and can include a tag or linker. Residues count along the entry.
UniProt P63165, residues 1-97: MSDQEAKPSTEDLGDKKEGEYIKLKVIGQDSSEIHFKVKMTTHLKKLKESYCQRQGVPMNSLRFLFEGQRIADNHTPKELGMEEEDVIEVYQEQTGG
UniProt P19525: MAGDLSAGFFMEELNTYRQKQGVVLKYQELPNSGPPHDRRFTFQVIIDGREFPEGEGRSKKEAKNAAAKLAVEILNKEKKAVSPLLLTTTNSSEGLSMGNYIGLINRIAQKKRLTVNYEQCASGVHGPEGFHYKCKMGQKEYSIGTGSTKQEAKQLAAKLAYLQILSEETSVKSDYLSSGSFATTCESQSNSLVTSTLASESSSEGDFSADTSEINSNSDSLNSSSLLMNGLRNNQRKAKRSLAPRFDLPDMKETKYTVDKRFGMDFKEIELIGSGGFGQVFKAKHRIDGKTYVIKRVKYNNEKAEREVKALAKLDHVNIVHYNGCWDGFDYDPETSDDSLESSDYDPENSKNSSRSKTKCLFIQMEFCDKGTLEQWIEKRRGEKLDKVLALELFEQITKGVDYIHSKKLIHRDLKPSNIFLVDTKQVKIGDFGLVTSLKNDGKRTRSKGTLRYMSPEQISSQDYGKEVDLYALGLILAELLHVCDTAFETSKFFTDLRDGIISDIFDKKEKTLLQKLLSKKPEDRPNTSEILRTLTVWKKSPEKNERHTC
PKR-SIM102, PKR mutant in the SIM-102, in vitro-translated (P19525, form named): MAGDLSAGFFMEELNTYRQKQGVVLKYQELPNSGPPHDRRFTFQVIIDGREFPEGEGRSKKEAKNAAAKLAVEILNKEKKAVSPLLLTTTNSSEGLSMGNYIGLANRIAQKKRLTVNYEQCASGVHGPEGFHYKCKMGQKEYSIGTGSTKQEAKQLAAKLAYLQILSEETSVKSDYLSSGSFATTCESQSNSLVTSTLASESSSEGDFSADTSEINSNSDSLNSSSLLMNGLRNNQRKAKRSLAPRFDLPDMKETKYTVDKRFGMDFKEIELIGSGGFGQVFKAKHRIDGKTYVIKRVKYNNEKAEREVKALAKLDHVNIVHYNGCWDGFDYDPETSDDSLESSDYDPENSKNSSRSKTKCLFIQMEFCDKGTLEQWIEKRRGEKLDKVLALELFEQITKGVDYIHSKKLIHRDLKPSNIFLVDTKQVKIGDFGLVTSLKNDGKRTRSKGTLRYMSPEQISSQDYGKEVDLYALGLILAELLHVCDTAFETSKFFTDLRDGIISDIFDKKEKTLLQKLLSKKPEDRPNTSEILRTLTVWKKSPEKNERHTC
PKR-SIM163, PKR mutant in the SIM-163, in vitro-translated (P19525, form named): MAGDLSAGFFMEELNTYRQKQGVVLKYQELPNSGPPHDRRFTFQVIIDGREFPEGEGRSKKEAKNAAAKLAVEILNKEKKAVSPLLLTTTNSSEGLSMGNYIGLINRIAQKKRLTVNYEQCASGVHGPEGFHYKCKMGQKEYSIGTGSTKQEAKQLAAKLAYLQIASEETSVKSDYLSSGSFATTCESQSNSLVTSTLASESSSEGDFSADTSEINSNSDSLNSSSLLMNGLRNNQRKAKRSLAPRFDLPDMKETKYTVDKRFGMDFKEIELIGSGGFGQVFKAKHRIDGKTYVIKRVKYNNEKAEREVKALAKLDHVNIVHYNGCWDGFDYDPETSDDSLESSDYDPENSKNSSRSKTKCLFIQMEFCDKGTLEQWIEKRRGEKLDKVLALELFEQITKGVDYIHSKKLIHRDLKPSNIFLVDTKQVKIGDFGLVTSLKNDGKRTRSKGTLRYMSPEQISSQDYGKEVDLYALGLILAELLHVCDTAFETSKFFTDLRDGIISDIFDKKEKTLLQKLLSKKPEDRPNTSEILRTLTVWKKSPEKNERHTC

This assay has as its target GST-SUMO1 (UniProt P63165). As to the kind of experiment: pull-down; GST or GST-SUMO1 as bait; [35S]methionine-labeled in vitro-translated PKR WT, C-terminus or mutants as prey; autoradiography; only the target purified.

These are yes or no findings as the source states them, for the method shown. Binding seen in cells or lysates may run through a third protein. Some entries that bind do so weakly or less than the wild type.

In the case of “PKR-SIM102, PKR mutant in the SIM-102, in vitro-translated (from UniProt P19525 1-551) (enzyme)”, the binding result is recorded as “binds”. With “PKR-WT, [35S]methionine-labeled in vitro-translated PKR protein (from UniProt P19525 1-551) (enzyme)” the entry was “binds”.

Take “C-terminus of PKR (amino acids 266-550), [35S]methionine-labeled, in vitro-translated (from UniProt P19525 266-550) (domain or fragment)”: the binding result is recorded as “no binding”. With “PKR-SIM163, PKR mutant in the SIM-163, in vitro-translated (from UniProt P19525 1-551) (enzyme)” the entry was “binds”.
